Test results published in article PMC2755476, “The Sam domain of the lipid phosphatase Ship2 adopts a common model to interact with Arap3-Sam and EphA2-Sam” (BMC Structural Biology, 2009).
No constants are given. Whether binding was seen depends on the method and setting. Some entries that bind do so weakly or less than the wild type.

Amino acid sequences for entries named in this document (tags omitted). Residues count along the entry.
UniProt P29317, residues 904-968: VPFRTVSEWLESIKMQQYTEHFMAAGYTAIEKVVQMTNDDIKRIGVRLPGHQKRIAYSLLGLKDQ

Molecular target: Sam domain of the Ephrin A2 receptor (EphA2-Sam) (UniProt P29317)
Assay: NMR titration; 2D [1H,15N]-HSQC displacement experiment; 15N EphA2-Sam, then unlabeled Ship2-Sam, then unlabeled Arap3-Sam; final ratio EphA2-Sam/Ship2-Sam/Arap3-Sam 1:1.8:3.2; both purified

binding: binds
B1: Sam domain of Ship2 (Src homology 2 domain-containing phosphoinositide-5-phosphatase 2) (domain or fragment, UniProt O15357 1194-1258)
chain: SGLGEAGMSAWLRAIGLERYEEGLVHNGWDDLEFLSDITEEDLEEAGVQDPAHKRLLLDTLQLSK
